In the supplement of paper PMC5949888:
± gives the standard deviation of the averaged measurements. Most values lie at the floor of the assay. Slopes are relative: functional sequences can read slightly below zero.

Test system: Saccharomyces cerevisiae PS128 hsf1 delta, HSF1(1-493) fusion
Test: growth estimate (transactivation domain function in HSF1 fusion, heat-shock survival) (a.u. (slope of normalised read count over time)); higher = stronger growth at 37°C, i.e. more transactivation activity
Details: library: random library

Substance	growth estimate
IRRSSRWR	< -0.25
IRRVLERLYFSCSSRSNLQE	-0.208
IRSAVTGLIRFLGCLGRGSH	< -0.25
IRSKIPG	< -0.25
IRSVGGANEGY	< -0.25
IRSVGGGVGLGPPTKRNCK	< -0.25
IRTHSDYEALETSSGQSTAN	< -0.25
IRTSTNVCLIRGRALHYRGT	< -0.25
IRV	< -0.25
IRVGMTVKSAAHQWD	< -0.25
IRVLF	< -0.25
IRVTILQKLSLSTLT	< -0.25
IRW	< -0.25
IRWHYTA	< -0.25
ISALNEPLKSV	< -0.25
ISASKLRSRFAGEYAVYLIL	< -0.25
ISATKRLA	< -0.25
ISCGGSAMRPAGWYVEDSGR	< -0.25
ISDGRQ	< -0.25
ISDIKKCTRSHDNTQRCSRL	< -0.25
ISDKFLV	< -0.25
ISGD	< -0.25
ISGGGRDLSGPSL	< -0.25
ISGGIRMALKGARSSPEVLD	< -0.25
ISGLVQNRQL	< -0.25
ISGN	< -0.25

Another view of some results above:
IRTHSDYEALETSSGQSTAN
  growth estimate = < -0.25
IRTSTNVCLIRGRALHYRGT
  growth estimate = < -0.25
IRV
  growth estimate = < -0.25
IRVGMTVKSAAHQWD
  growth estimate = < -0.25

Continuation:

Substance	growth estimate
ISGNLARGLTLLSTAPRVGP	0.0802
ISGPGPLRYRLKSTSVCLMH	< -0.25
ISINRYNEAGCRIKA	< -0.25
ISISFGTA	< -0.25
ISITLA	< -0.25
ISIWLRGLCLRSSQDQGPGS	< -0.25
ISKGK	< -0.25
ISKGPTKVGGKPTFITPTPG	< -0.25
ISLGTCSSDLGPWGCKHYR	< -0.25
ISLRSRENAFLRRPSKFHGV	< -0.25
ISLYEACIYVRLRTWQLHPP	< -0.25
ISMHSLR	< -0.25
ISMLQLGKIWEDKRVHDPPS	< -0.25
ISMQDQVNYVVFLSGRDCSP	< -0.25
ISNAVERR	< -0.25
ISNEIPGLGNFLAIPAHVSG	-0.229
ISNKICCTYAPQSSAYRSEW	< -0.25
ISNPWWHTPRIA	< -0.25
ISPNWLPTRRFFG	< -0.25
ISRGVSRGPMDQQQPGRRWI	< -0.25
ISRLTA	< -0.25
ISRVQRPQGPADCKVFQGVP	< -0.25
ISSDPGIVES	< -0.25
ISSDQ	-0.243
ISSNVKGLRRGSVTGARGIP	< -0.25
ISSTW	< -0.25

Substance	growth estimate
ISSYCGTQSVYILDVRLVQA	< -0.25
ISTHPVDCGHALYHGARRS	< -0.25
ISTVIRLRKAVSRSPSPRGL	< -0.25
ISVKHLDA	< -0.25
ISVTGAMLSNGQRRTNPKLM	< -0.25
ISYAKRYSESR	< -0.25
ISYCTSGPFQKTRFTGFNEM	< -0.25
ITANGSPAGHRPVRIVPSPT	< -0.25
ITCGRKALGC	< -0.25
ITDVGY	< -0.25
ITEC	< -0.25
ITEDFSRSAFEWCNTRVMPL	< -0.25
ITETLQANSWTASTCPLAPW	-0.235
ITEVCCMGASRESLRCSWYE	< -0.25
ITFGIGR	-0.231
ITFKKARFLFIWQNPIGVIR	< -0.25
ITFYGRI	< -0.25
ITGDE	< -0.25
ITGSGGLSGLMATRVGSGRP	< -0.25
ITLNAKTGNDW	< -0.25
ITQ	< -0.25
ITREI	< -0.25
ITRGDVVEERHTCDAG	< -0.25
ITRLRAGYMGVHSPEGPFVC	< -0.25
ITRSQKFSVSVTSTARRTFD	< -0.25
ITS	< -0.25

Substance	growth estimate
ITSEIFFTRNLQRGGDLVLN	< -0.25
ITSGHCFTNRH	< -0.25
ITSLSLTCVSLHGRAQIREG	< -0.25
ITTALFSQIPVIFGRNSGPF	< -0.25
ITTRGLMPPWLRIFSASNPR	< -0.25
ITVKPFAA	-0.197
ITVLVSAVIPRLQKDTVRRL	< -0.25
ITVRACLLGVIYKSCFTHQP	< -0.25
ITYMTQGISIPSVVAYISSG	< -0.25
IVA	-0.247 ± 0.0037
IVAMLEWDWRVLWCFV	-0.248
IVANNPRKGRRWGALRGKIV	< -0.25
IVASV	< -0.25
IVAT	< -0.25
IVCI	< -0.25
IVEGQ	-0.246
IVGTRRSLVRDLCTHVVGDT	-0.229
IVHWLPAGSLGLVRDYIEHR	< -0.25
IVI	< -0.25
IVIRGARDG	-0.248
IVKSLDATLKY	< -0.25
IVKTHGLSFLPSMQDPLEVR	< -0.25
IVLKRNHSG	< -0.25
